# Assay results: the supplement of paper PMC3682954
# Structures can show the parent of a compound that is named as a salt. ± gives the standard deviation of the averaged measurements. The list shows a part of the results. Repeats are few or missing, and single values can be far off.
# Tested on: RAW 264.7
# Experiment: HMGB1-induced TNF-alpha production relative to HMGB1-stimulated control; higher = more TNF-alpha secretion (less inhibition)
# Settings: stimulus: HMGB1 5 ug/ml, 18 h
# [1] = compound concentration: 1 ug/ml
SMILES,HMGB1-induced TNF-alpha production (compound concentration: 3 uM) [%],HMGB1-induced TNF-alpha production [1] [%]
Oc1c(I)cc(I)c2cccnc12,102,–
CN1C2CCCC1CC(NC(=O)c1nn(C)c3ccccc13)C2 (stereo not drawn) [Granisetron],111 ± 17,–
CN1C2CCCC1CC(NC(=O)c1nn(C)c3ccccc13)C2 (stereo not drawn),102,–
CN1C2CCCC1CC(NC(=O)c1nn(C)c3ccccc13)C2 (stereo not drawn) [Granisetron hydrochloride],100,–
CC(C)N1CCN(c2ccc(OCC3COC(Cn4cncn4)(c4ccc(Cl)cc4Cl)O3)cc2)CC1 (stereo not drawn) [Terconazole],57.2,–
N=C(N)c1ccccc1 [Benzamidine hydrochloride],77.8,–
O=C(NCCNCC(O)COc1ccc(O)cc1)N1CCOCC1 (stereo not drawn) [Xamoterol],104,–
O=C(NCCNCC(O)COc1ccc(O)cc1)N1CCOCC1 (stereo not drawn) [Xamoterol hemifumarate],108,–
CCN(Cc1ccncc1)C(=O)C(CO)c1ccccc1 (stereo not drawn),86.3,–
CCN(Cc1ccncc1)C(=O)C(CO)c1ccccc1 (stereo not drawn) [Tropicamide],95.9 ± 20,–
CN(C)CCOC1=Cc2ccccc2Sc2ccc(Cl)cc21 [Zotepine],66.1,–
OC(CCN1CCCCC1)(c1ccccc1)C1CC2C=CC1C2 (stereo not drawn) [Biperiden hydrochloride],78.1 ± 15,–
OC(CCN1CCCCC1)(c1ccccc1)C1CC2C=CC1C2 (stereo not drawn),84.2,–
Cc1ncc([N+](=O)[O-])n1CCO,94 ± 21,–
Cc1ncc([N+](=O)[O-])n1CCO [Metronidazole],80.7 ± 3.3,–
CCN(CC)CC#CCOC(=O)C(O)(c1ccccc1)C1CCCCC1 (stereo not drawn),86.3,–
CCN(CC)CC#CCOC(=O)C(O)(c1ccccc1)C1CCCCC1 (stereo not drawn) [Oxybutynin chloride],50.4,–
CCN(CC)CC#CCOC(=O)C(O)(c1ccccc1)C1CCCCC1 (stereo not drawn) [Oxybutynin Chloride],102,–
CC(C)c1cccc(C(C)C)c1N1C(=O)c2ccc(O)cc2C1=O,106,–
COc1ccc(C(=O)NCc2cccnc2)cc1C(=O)NCc1cccnc1 [Picotamide monohydrate],70.8,–
COc1ccc(C(=O)NCc2cccnc2)cc1C(=O)NCc1cccnc1 [Picotamide],96 ± 18,–
COCc1c(C(C)C)nc(C(C)C)c(/C=C/[C@@H](O)C[C@@H](O)CC(=O)O)c1-c1ccc(F)cc1 [Cerivastatin],153,–
C=CC[C@@H]1/C=C(\C)C[C@H](C)C[C@H](OC)[C@H]2O[C@@](O)(C(=O)C(=O)N3CCCC[C@H]3C(=O)O[C@H](/C(C)=C/[C@@H]3CC[C@@H](O)[C@H](OC)C3)[C@H](C)[C@@H](O)CC1=O)[C@H](C)C[C@@H]2OC,85.8 ± 17,–
O=Nc1c(-c2c(O)[nH]c3ccccc23)[nH]c2ccccc12 [Indirubin-3'-oxime],98.6,–
Cc1ccc(C(=O)c2cc(O)c(O)c([N+](=O)[O-])c2)cc1 [Tolcapone],114,–
NC[C@H]1O[C@H](O[C@H]2[C@H](O[C@@H]3O[C@H](CO)[C@@H](O)[C@H]3O)[C@@H](O)[C@H](N)C[C@@H]2N)[C@H](N)[C@@H](O)[C@@H]1O [Ribostamycin sulfate salt],90,–

# Record cards, as listed above. Values in the order: HMGB1-induced TNF-alpha production (compound concentration: 3 uM) [%]	HMGB1-induced TNF-alpha production [1] [%]
# Cc1ncc([N+](=O)[O-])n1CCO is listed with 94 ± 21	–
# OC(CCN1CCCCC1)(c1ccccc1)C1CC2C=CC1C2 (stereo not drawn) is listed with 84.2	–

# More entries:

SMILES,HMGB1-induced TNF-alpha production (compound concentration: 3 uM) [%],HMGB1-induced TNF-alpha production [1] [%]
NC[C@H]1O[C@H](O[C@H]2[C@H](O[C@@H]3O[C@H](CO)[C@@H](O)[C@H]3O)[C@@H](O)[C@H](N)C[C@@H]2N)[C@H](N)[C@@H](O)[C@@H]1O,72.8,–
CCCCC/C=C\C[C@@H](O)/C=C/c1cccc(C[C@@H](O)CCCCO)n1,94,–
COc1ccc2[nH]cc(CCNC(C)=O)c2c1 [Melatonin],88.7 ± 4,77.2
O=C([O-])c1ccccc1O.[Na+],89.6,–
COc1cc(OC)c(C=C2C(=O)Nc3ccccc32)c(OC)c1,105,–
CN1CCCCC1CCN1c2ccccc2Sc2ccc([S+](C)[O-])cc21 (stereo not drawn) [Mesoridazine besylate],56.6,–
CN1CCCCC1CCN1c2ccccc2Sc2ccc([S+](C)[O-])cc21 (stereo not drawn) [Mesoridazine],91.1 ± 23,–
NC(=O)N/N=C/c1ccc([N+](=O)[O-])o1 [Nitrofural],64.6,–
NC(=O)N/N=C/c1ccc([N+](=O)[O-])o1,83.1,–
O=C(O[C@H]1CN2CCC1CC2)N1CCc2ccccc2[C@@H]1c1ccccc1,66.1,–
CCCC(=O)Nc1ncnc2c1ncn2[C@@H]1O[C@@H]2COP(=O)(O)O[C@H]2[C@H]1OC(=O)CCC,94.6,–
CCCC(=O)Nc1ncnc2c1ncn2[C@@H]1O[C@@H]2COP(=O)(O)O[C@H]2[C@H]1OC(=O)CCC [Bucladesine sodium salt],139,–
CN(C)CCC[C@@]1(c2ccc(F)cc2)OCc2cc(C#N)ccc21 [Escitalopram],102 ± 7.8,–
CN(C)CCC[C@@]1(c2ccc(F)cc2)OCc2cc(C#N)ccc21,92.1 ± 2.5,–
CN1CCCC(n2nc(Cc3ccc(Cl)cc3)c3ccccc3c2=O)CC1 (stereo not drawn) [Azelastine HCl],116,–
O=C(CNC(=O)c1ccc(Cl)cc1)NO,79.5,–
CC(=O)Oc1cccc(O)c1,85.5,–
CCN1CCN(C(=O)N[C@@H](C(=O)N[C@@H]2C(=O)N3[C@@H]2SC(C)(C)[C@@H]3C(=O)O)c2ccccc2)C(=O)C1=O [Piperacillin],85,–
CCN1CCN(C(=O)N[C@@H](C(=O)N[C@@H]2C(=O)N3[C@@H]2SC(C)(C)[C@@H]3C(=O)O)c2ccccc2)C(=O)C1=O,102,–
CCN1CCN(C(=O)N[C@@H](C(=O)N[C@@H]2C(=O)N3[C@@H]2SC(C)(C)[C@@H]3C(=O)O)c2ccccc2)C(=O)C1=O [Piperacillin sodium salt],92,–
CO[C@@H]1[C@@H](OC(N)=O)[C@@H](O)[C@H](Oc2ccc3c(O)c(NC(=O)c4ccc(O)c(CC=C(C)C)c4)c(=O)oc3c2C)OC1(C)C [Novobiocin sodium salt],96.4,72.7
CO[C@@H]1[C@@H](OC(N)=O)[C@@H](O)[C@H](Oc2ccc3c(O)c(NC(=O)c4ccc(O)c(CC=C(C)C)c4)c(=O)oc3c2C)OC1(C)C,93.2,–
CO[C@@H]1[C@@H](OC(N)=O)[C@@H](O)[C@H](Oc2ccc3c(O)c(NC(=O)c4ccc(O)c(CC=C(C)C)c4)c(=O)oc3c2C)OC1(C)C [Novobiocin],85.5,–
CC1(C)OC(=O)NC1=O [Dimethadione],126,–
CC1(C)OC(=O)NC1=O,75.9,–
